The results in this text go back to PubChem BioAssay AID1487 (National Center for Advancing Translational Sciences (NCATS), 2009).

The other results are listed elsewhere or left out. These are further read-outs of the screen, such as a control signal, another cell line or another target. No call is given for them. Compounds called inactive in the main read-out are mostly missing here. The note in brackets gives the kind of curve behind each potency; many fits are weak.

The assay is described as follows: qHTS Assay for Modulators of Lamin A Splicing. As to conditions: HeLa LMNA splicing GFP/RFP minigene ratio, 48 h. The essentials:
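S3 HeLa cells stably expressing lamin A-EGFP splicing minigene plus DsRed2, 600 cells/well, 48 h compound exposure at 37C. Laser-scanning cytometry; analysed as GFP (500-530 nm)/RFP (575-640 nm) total intensity ratio; 0.5% DMSO vehicle.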
For orientation: In qHTS, concentration-response curves come from the screen itself.

The mark [1] stands for this setting: measured here: RFP viability control channel.
Setting [2] is: measured here: GFP splicing reporter channel.

As usually defined, the AC50 is the concentration at which the activity in the assay is half-maximal. In the case of `c1ccc(Cn2nc(-c3ccccc3)nc2-c2ccccc2)cc1`, the AC50 under setting [1] is 14.1 µM [rising, partial curve].
Turning to `Cn1cnnc1SCC(=O)Nc1cc(C(=O)O)cc(C(=O)O)c1`, the half-maximal activity concentration (AC50) under setting [2] is 0.178 µM [falling, full curve, poor fit].
For `O=C(c1ccccc1)N1CCN(c2ncnc3sc4c(c23)CCC4)CC1`, the AC50 under setting [1] is 12.6 µM [rising, partial curve].
Turning to `O=C(NCCCN1CCCC1)c1cc2c(Cl)nc3ccccc3c2s1`, under setting [2], the AC50 was 7.94 µM [falling, partial curve, poor fit].
As to `CC1CCCN(c2nc(NCc3ccco3)nc(N)c2[N+](=O)[O-])C1` (stereo not given), the AC50 under setting [1] is 8.91 µM [rising, partial curve].
The same measure, in the same setting: in the case of `COc1ccc(-c2ccc(CNc3ccc4[nH]c(=O)[nH]c4c3)o2)cc1Cl` it was 25.1 µM [falling, single point]; in that of `NS(=O)(=O)c1ccc(NC(=O)COC(=O)C2(c3ccc(F)cc3)CCCC2)cc1`, 22.4 µM [rising, single point].
With `Cc1cc(C)nc(-n2nc(C)cc2Nc2ccccc2)n1`, the AC50 was 10 µM [rising, single point] under setting [2] and 11.2 µM [rising, partial curve] under setting [1].
As to `O=C(NCc1ccco1)C(=O)NCC1OCCCN1S(=O)(=O)c1ccc(Cl)cc1` (stereo not given), the half-maximal activity concentration (AC50) under setting [1] was 7.08 µM [rising, full curve, poor fit].
Same read-out and setting: in the case of `Cn1c(CCN2CCCCC2)nc2cc(NS(=O)(=O)c3ccc(F)cc3)ccc21` it was 14.1 µM [rising, partial curve].
For the molecule `COC(=O)c1ccc(COc2ccccc2/C=N/NS(=O)(=O)c2ccccc2)cc1`, the AC50 by setting is: under setting [2], 14.1 µM [rising, partial curve, poor fit]; under setting [1], 14.1 µM [rising, partial curve].
As for `CC(C)OC(=O)c1ccc(Cn2nnc3ccccc3c2=O)cc1`, under setting [1], the concentration at half-maximal activity (AC50) was 15.8 µM [rising, single point].
As for `COc1ccc(S(=O)(=O)c2c(Nc3ccc(C)cc3)sc(C(=O)c3ccc(C)cc3)c2N)cc1`, the AC50 by setting is: under setting [2], 15.8 µM [rising, single point]; under setting [1], 11.2 µM [rising, partial curve].
Regarding `CCOc1ccc2nc(-c3ccccc3)[nH]c2c1`, the concentration at half-maximal activity (AC50) under setting [1] is 1 µM [rising, partial curve].
Take `OCCN1CCN(c2nc(-c3ccccc3)nc3c2oc2ccccc23)CC1`: the concentration at half-maximal activity (AC50) by setting is: under setting [2], 31.6 µM [rising, single point]; under setting [1], 31.6 µM [rising, single point].
On to `Cc1cccc(C(=O)NCC(c2ccc3c(c2)OCO3)N2CCN(c3ccccc3F)CC2)c1` (stereo not given), for which the AC50 by setting is: under setting [2], 35.5 µM [falling, partial curve, poor fit]; under setting [1], 0.0891 µM [falling, full curve, poor fit].
As to `CC/C(=N\NC(=O)c1ccc(N(C)C)cc1)c1ccccc1`, the AC50 under setting [1] is 15.8 µM [rising, single point].
Regarding `C=CCSc1nc(N)c(C#N)c(-c2ccccc2)c1C#N`, the half-maximal activity concentration (AC50) under setting [2] is 0.112 µM [rising, full curve, poor fit].
The same measure, in the same setting: the figure for `NC(=O)CCn1ccc2ccccc21` is 1.12 µM [rising, partial curve, poor fit].
The same measure, in the same setting: in the case of `CCOc1ccc(C(=O)NCC(c2cccs2)N(C)C)cc1` (stereo not given) it was 0.0251 µM [falling, full curve, poor fit].
Consider `O=C(O)CCN(Cc1ccccc1)S(=O)(=O)c1ccc(Cl)cc1F`, for which, under setting [1], the concentration at half-maximal activity (AC50) was 0.00562 µM [falling, full curve].
As for `CC(C)(C)n1nnnc1SCC(=O)Nc1nn(-c2ccccc2)nc1C(N)=O`, under setting [1], the AC50 is 0.00316 µM [falling, full curve, poor fit].
As for `Clc1ncc(CN2CCN(c3ccccc3)CC2)s1`, the AC50 was 0.01 µM [falling, full curve] under setting [2] and 0.00355 µM [falling, full curve, poor fit] under setting [1].
Turning to `C=CCN(C(=O)c1csnn1)C(C(=O)NC(C)(C)C)c1ccncc1` (stereo not given), the AC50 is 0.00316 µM [rising, full curve, poor fit] under setting [2] and 0.00355 µM [rising, full curve, poor fit] under setting [1].
`CC(=O)c1c(C)n(CC(=O)NCc2ccc3c(c2)OCO3)c2ccccc12`: the concentration at half-maximal activity (AC50) runs as follows: under setting [2], 4.47 µM [rising, single point]; under setting [1], 3.55 µM [rising, full curve].
Take `Cn1ccc(NC(=O)Nc2cccc(C(F)(F)F)c2)n1`: the AC50 under setting [2] was 0.562 µM [rising, full curve, poor fit].
Turning to `Brc1cc2c(cc1/C=N/Nc1nc3ccccc3s1)OCO2`, the concentration at half-maximal activity (AC50) is 22.4 µM [falling, single point] under setting [2] and 35.5 µM [falling, partial curve] under setting [1].
Regarding `COc1ccccc1NC(=O)C1=C(C)N(c2ccccc2)C(=S)NC1c1cccc(C(F)(F)F)c1` (stereo not given), the AC50 by setting is: under setting [2], 15.8 µM [falling, single point]; under setting [1], 14.1 µM [falling, partial curve].
As for `COc1ccc(C(C)=O)c2c1OCCO2`, under setting [1], the AC50 was 35.5 µM [rising, single point].
`CCC(C)(C)NC(=O)CC(c1ccc(OC)cc1)n1cccc1` (stereo not given): the AC50 under setting [2] was 35.5 µM [rising, single point] and the half-maximal activity concentration (AC50) under setting [1] was 35.5 µM [rising, single point].
Turning to `COc1cc(/C=C\C(=O)N2CCC=CC2=O)cc(OC)c1OC`, the AC50 is, setting by setting: under setting [2], 3.55 µM [falling, partial curve]; under setting [1], 3.16 µM [falling, partial curve].
In the case of `CCc1nc(N2CCCCC2)c2oc3ccccc3c2n1`, the AC50 reads like this: under setting [2], 11.2 µM [rising, single point]; under setting [1], 11.2 µM [rising, single point].
In the case of `CCOc1ccc(C(=O)Nc2nnc(SCc3cc(=O)c4cc(C)ccc4[nH]3)s2)cc1`, the half-maximal activity concentration (AC50) under setting [2] is 1.78 µM [rising, full curve, poor fit].
Take `CCOc1cc(S(=O)(=O)Nc2cc(C)cc(C)c2)ccc1Cl`: the concentration at half-maximal activity (AC50) under setting [1] was 12.6 µM [rising, single point].
Consider `C=CCC1(Cl)C(=O)C(Cl)=C(N2CCOCC2)C1(OC)OC` (stereo not given), for which the concentration at half-maximal activity (AC50) was 0.631 µM [falling, partial curve] under setting [2] and 0.316 µM [falling, full curve, poor fit] under setting [1].
Take `CC1(C(=O)NC(=S)NNC(=O)c2ccncc2)CCCCC1`: the AC50 under setting [1] was 8.91 µM [rising, partial curve, poor fit].
